{"sequences": {"note": "Sequences of proteins named here, by UniProt entry; tags and fusion partners are left off. A change or cut given only in a name is not applied to a line headed by its entry.", "UniProt Q9NYJ7": "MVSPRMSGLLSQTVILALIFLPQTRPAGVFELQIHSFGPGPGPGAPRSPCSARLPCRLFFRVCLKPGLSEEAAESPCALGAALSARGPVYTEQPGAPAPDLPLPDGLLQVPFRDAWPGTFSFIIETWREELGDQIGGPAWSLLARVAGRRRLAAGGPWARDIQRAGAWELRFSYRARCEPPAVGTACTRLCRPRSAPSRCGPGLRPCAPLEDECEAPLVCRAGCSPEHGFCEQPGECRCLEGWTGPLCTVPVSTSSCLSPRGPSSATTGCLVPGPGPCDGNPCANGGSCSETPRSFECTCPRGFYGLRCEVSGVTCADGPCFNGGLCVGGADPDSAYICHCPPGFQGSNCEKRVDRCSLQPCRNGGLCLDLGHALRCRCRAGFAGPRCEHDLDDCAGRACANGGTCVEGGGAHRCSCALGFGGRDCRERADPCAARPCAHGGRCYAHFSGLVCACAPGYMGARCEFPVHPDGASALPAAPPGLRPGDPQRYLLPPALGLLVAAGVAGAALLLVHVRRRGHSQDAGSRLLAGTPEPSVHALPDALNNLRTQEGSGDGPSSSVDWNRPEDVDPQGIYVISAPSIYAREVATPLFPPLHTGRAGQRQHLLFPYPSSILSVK"}, "source": "patent US20160015828A1", "about": "(AbbVie / Abbott, published 2016)", "note": "Results are given in words; binding and its absence hold for the method and conditions named. Some entries that bind do so weakly or less than the wild type."}
{"biological_target": "DLL3 (UniProt Q9NYJ7)", "assay": "screening on immobilized DLL3 or 293-hDLL3 cells"}
{"binder": "SC16.148 (antibody, V domains shown) VH: QIQLVQSGPELKKPGETVKISCKASGYTLTNYGMNWVKQAPGKGLKWMGWINTYTGEPTYADDFKGRFAFSLETSARIVYLQINNLKNEDTATYFCAKYEAHEGFVYWGQGTLVTVSA VL: QIVLTQSPAIMSASPGEKVTMTCSASSSVSYMYWYQQKPGSSPRLLIYDTSNLASGVPVRFSGSGSGTSYSLTISRMEAEDTATYYCQEWSNNPLTFGDGTKLELK", "binding": "binds"}
{"binder": "SC16.149 (antibody, V domains shown) VH: QVQLKESGPGLVAPSQSLSITCAVSGFSLTSFGVHWVRQPPGKGLEWLGVIWAGGSTNYYSALMSRLSISIDNSKSQVFLKMNSLQTDDTAMYYCARDWEGWFAYWGQGTLVTVSA VL: DIQMNQSPSSLSASLGDTITITCHASQNINVWLSWYQQKPGNIPKLLIYKASHLHTGVPSRLSGSGSGTGFTLTISSLQPEDIATYYCQQGQSYPFTFGSGTTLEIK", "binding": "binds"}
{"binder": "SC16.3 (antibody, V domains shown) VH: QVTLKESGPGILQPSQTLSLTCSFSGFSLSTSGMGVGWIRQPSGKGLEWLAHIWWDDVKRYNPALKSRLTISKDTSSSQVFLKIASVDTADTATYYCARIADYGGDYYAMDYWGQGTSVTVSS VL: QIVLTQSPAIMSVSLGERVTMTCTASSSVSSSYLHWYQQKPGSSPKLWIYSTSNLASGVPARFSGSGSGTSYFFTISSMEAEDAATYYCHQYHRSPFTFGAGTKLKIR", "binding": "binds"}
{"binder": "SC16.5 (antibody, V domains shown) VH: QVTLKESGPGILQPSQTLSLTCSFSGFSLSTSGMGVGWIRQPSGEGLEWLADIWWDDNKYYNPSLKSRLTISKDTSSNQVFLKITSVDTADTATYYCARRVNYVYDPYYAMDYWGQGTSVTVSS VL: QIVLTQSPAIMSASPGEKVTMTCSASSSVSYMHWYQQKSGTSPKRWIYDTSKLASGVPARFSGSGSGTSYSLTISSMEAEDAATYYCQQWTRNPLTFGAGTKLELK", "binding": "binds"}
{"binder": "SC16.10 (antibody, V domains shown, murine mAb; V regions only) VH: QVTLKESGPGILQSSQTLSLTCSFSGFSLSTSGMGVGWIRQPSGKGLEWLAHIWWDDVKRYNPVLKSRLTISKDTSSSQVFLKIASVDTADTATYYCARLVDDLYYFDYWGQGTTLTVSS VL: QIVLTQSPAIMSASLGERVTMTCTASSSVSSSYLHWYQQKPGSSPKLWIYSTSNLASGVPTRFSGSGSGTSYSLTISSMEAEDAATYYCHQYHRSPFTFGSGTKLEIK", "binding": "binds"}
{"binder": "SC16.18 (antibody, V domains shown) VH: EVKLEESGGGLVQPGESMKLSCAASGFTFSDAWMDWVRQSPEKGLEWVAEIRNKANNHATYYAESVKGKFTISRDDSKSRVYLQMNNLRAADTGIYYCTAYSNFAYWGQGTLVTVST VL: DIQMTQTTSSLSASLGDRVTISCRASQNIINYLNWYQQKPDGTVKLLIYYTSRLHSGVPSRFSGSGSGTDYSLTISNLEPEDIATYYCQQYSERPYTFGGGTKLEIK", "binding": "binds"}
{"binder": "SC16.19 (antibody, V domains shown) VH: EVQLQQSGAELVRPGASVKLSCTASGFNIKDSLLHWVKQRPEKGLEWIGWIDPEDGETKYAPNFQDKATITTDSSSNTAYLQLISLTSVDTAIYYCAYGNYVRHFDYWGQGTTLTVSS VL: DIQMTQSPSSLSASLGGKVTFTCKASQDIHKYVAWYQHKPGKGPRLLIHYTSTLQPGISSRFSGSGSGRDYSFSISNLEPEDIATYYCLQYNNLYTFGGGTKLEIK", "binding": "binds"}
{"binder": "SC16.20 (antibody, V domains shown) VH: QVQLQQSGTELVRPGTSVRVSCKASGYAFGNHLIEWVKQRPGQGLEWIGVINPGTGGTHYNEKFKDKARLTADKSSNTAYMHLNSLTSDDSAVYFCARSPYDYHEGAMDYWGQGTSVTVSS VL: EIQMTQSPSSMSASLGDRITITCQATQDIVKNLNWYQQKPGKPPSFLIYYATELAEGVPSRFSGSGSGSDYSLTIRNLESEDFADHYCLQFYEFPFTFGAGTKLELK", "binding": "binds"}
{"binder": "SC16.21 (antibody, V domains shown) VH: QVQLQQSGPELVKPGASVKISCKASGYAFSSSWMNWVKQRPGKGLEWIGRIYPGDGDTNYNGKFKGKATLTADKSSSTAYMQLSSLTSEDSAVYFCAMGIYNYDGSRYYSMDYWGQGTSVTVSS VL: DIVMTQSPSSLAMSVGQKVTMSCKSSQSLLNSSNQKNYLAWYQQEPGQSPKLLVSFASTRESGVPDRFTGSGSGTDFTLTISGVQAEDLAVYYCQQHYSIPLTFGAGTKLELK", "binding": "binds"}
{"binder": "SC16.23 (antibody, V domains shown) VH: QVTLKESGPGILQPSQTLSLTCSFSGFSLSTSNTGIGWIRQPSGTGLEWLAHIWWNDDKYYNPSLKSRLTISKETSNNQVFLKITNVDTADTASYFCVQIGRDYSNYAWYFDVWGAGTTVTVSS VL: QIVLTQSPAIMSASPGEKVTLTCSASSSVSSRYLYWYQQKPGSSPKLWIYSTSNLASGVPARFSGSGSGTSYSLIISSMEAEDAASYFCHQWSNYPLTFGAGTKLELK", "binding": "binds"}
{"binder": "SC16.25 (antibody, V domains shown, murine mAb; V regions only) VH: QVTLKESGPGILQPSQTLSLTCSFSGFSLSTSGMGVGWIRQPSGEGLEWLTDIWWDDNKYYNPSLKSRLTISKDTSSNQVFLNITSVDTADTATYYCARRVNYYYDPYYAMDYWGQGTSVTVSS VL: QIVLTQSPAIMSASPGEKVTMTCSASSSVSYMHWYQQKSGTSPKRWIYDSSKLASGVPARFSGSGSGTSYSLTISSMEAEDAATYYCQQWSSNPLTFGAGTKLELK", "binding": "binds"}
{"binder": "SC16.29 (antibody, V domains shown) VH: QVQLQQSGAELARPGASVKLSCKASGYTFTDQYINWVKQRTGQGLEWIGEIYPGRGNTYYNEKFKGKATLTADKSSSTAYMQLSSLTSEDSAVYFCAREDGGYDDAWFAYWGQGTLVTVSA VL: QIVLTQSPAIMSASPGEKVTITCSASSSVSYMHWFQQKPGTSPKLWIYTTSNLASGVPARFSGSGSGTSYSLTVSRMEAEDAATYYCQQRSLYPYTFGGGTKVEIK", "binding": "binds"}
{"binder": "SC16.30 (antibody, V domains shown) VH: QVTLKESGPGILQPSQTLSLTCSFSGFSLSTSGMGVGWIRQPSGKGLEWLAHIWWDDVKRYKPALKSRLTVSKDTSSNQVFLKIATVDAADTGTYYCARIVDGHPPFAYWGQGTLVTVSA VL: QIVLTQSPTIMSASLGERVTMTCTASSSVTSSYLHWYQQKPGSSPKLWIYSTSNLASGVPARFSGSGSGTSYSLTISSMEAEDAATYYCHQFHRSPFTFGSGTKLEIK", "binding": "binds"}
{"binder": "SC16.35 (antibody, V domains shown) VH: DVQLQESGPGLVKPSQSLSLTCTVTGYSITSDYAWNWIRQFPGNKLEWMGYISYSGSTSYNPSLKSRISITRDTSKNQFFLQLNSVTTEDTATYYCARFYYGSSYAMDYWGQGTSVTVSS VL: DIQMTQTTSSLSASLGDRVTISCRASQDISNYLNWYQQKPDGTVKLLIYYTSRLHSGVPSRFSGSGSGTDYSLTISNLEQEDIATYFCQQGNTLPYTFGGGTKLEIK", "binding": "binds"}
{"binder": "SC16.38 (antibody, V domains shown) VH: EVQLQQSGAELVKPGASVKLSCTVSGFNIKDTYIHWVKQRPEQGLEWIGRIDPANGNTKYDPKFQGKATITADTSSNTAYLQLSSLTSEDTAVYYCARPTGYFEYWGQGTTLTVSS VL: QIVLTQSPAIMSASPGEKVTMTCSASSSINYMHWYQQKPGTSPKRWIYDTSKLASGVPARFSGSGSGTSYSLTISSMEAEDAATYYCHQRSTWTFGGGTKLEIK", "binding": "binds"}
{"binder": "SC16.39 (antibody, V domains shown) VH: EVKLEESGGGLVQFGGSMKLSCAASGFTFSDAWMDWVRQSPEKGLEWVAEIRNKANNHATYYPESVKGRFTISRDDSKSRVYLQMNNLRAEDTGIYYCTGYSSFAYWGQGTLVTVSA VL: DIQMTQTTSSLSASLGDRVTISCRASQDVINYLNWYQQKPDGTVKLLIYYTSRLHSGVPSRFSGSGSRTDYSLTISNLEPEDIATYYCQQYSERPYTFGGGTKLEIK", "binding": "binds"}
{"binder": "SC16.42 (antibody, V domains shown) VH: QIQLVQSGPELKKPGETVKISCKASGYTFTTAGMQWVQKMPGKGFKWIGWINTHSGEPKYADDFKGRFAFSLETSASTAYLQISNLKDEDTATFFCAPLWSDSSFAYWGQGTLVTVSA VL: DVLMTQSPLSLSVSLGDQASISCRSSQNIVHSDRYTYLEWYLQKPGQSPKLLIYGVSNRFSGVPDRFSGSGSGTDFTLKISRVEAEDMGVYYCFQGTHVPYTFGGGTKLEIK", "binding": "binds"}
{"binder": "SC16.45 (antibody, V domains shown) VH: QVQLQQSGADLVRPGTSVKVSCKASGYSFTNYLIEWVKQRPGQGLEWIGVINPGSGGTHYNEKFKDKAVLTADKSSTTAHMQLSSLTSDDSAVYFCARSPYDYNDGAMDYWGQGTSVTVSS VL: EIQMTQSPSSMSASLGDRITITCQATQDIVKNLNWYQQKPGKPPSFLIYYATELAEGVPARFSGSGSGSDYSLTISNLESEDFADYHCLQFYEFPFTFGAGTKLELK", "binding": "binds"}
{"binder": "SC16.47 (antibody, V domains shown) VH: EVQLQQSGPELVKPGASVKISCKASGYSFSRFYMHWVKQSPENSLEWIGEINPSTGGTSYNQKFKGKATLTVDKSSSTAYMQLKSLTSEESAVYYCTRGYGSNCYFDVWGAGTTVTVST VL: DVVLTQSPLSLPVNIGDQASISCKSTKSLLNSDGFTYLDWYLQRPGQSPQFLIYLVSNRFSGVPDRFSGSGSGTDFTLKISRVEAEDLGVYYCFQSNYLPLTFGAGTKLELR", "binding": "binds"}
{"binder": "SC16.49 (antibody, V domains shown) VH: QVQLQQSGPELVKPGTLVKISCKASGYTFTSYDINWVKQRPGQGLEWIGWIYPGDGNTKYSEKFKGKATLTADKSSSTAYMQLTSLTSENSAVYFCARDYDYPFAYWGQGTLVTVSA VL: DIKMTQSPSSMYASLGERVTITCKASQDINSYLSWFQQKPGKSPKTLIYRANRLVDGVPSRFSGSGSGQDYSLTITSLEYEDMGIYYCLQYDEFPLTFGAGTKLELK", "binding": "binds"}
{"binder": "SC16.52 (antibody, V domains shown) VH: QVQLKESGPGLVAPSQSLSITCAVSGFSLTSFAIHWFRKPPGKGLEWLGVIWTGGTTNYNSALMSRLSISKDNSKSQVFLKMNSLQTDDTAMYYCARDDYDNNYAMDYWGQGTSVTVSS VL: DIQMIQSPSSMFASLGDRVSLSCRASQGIRGTLDWYQQKPNGTIKLLIYSTSNLNSGVPSRFSGSGSGSDYSLTISSLESEDFADYYCLQRNAYPLTFGAGTKLELK", "binding": "binds"}
{"binder": "SC16.55 (antibody, V domains shown) VH: EVQLVESGGGLVQPKGSLKLSCAVSAFTFTTYAMNWVRQAPGKGLEWVARIRNKSNNYATYYADSVKDRFTISRDDSQSMLYLQMNNLKIEDTAMYYCVFYYDYVYWGQGTLVTVSA VL: DIKMTQSPSSMYASLGERVTITCKASQDINSYLNWFQQKPGKSPKTLIYRANRLVDGVPSRFSGSGSGQDYSLTISSLEYEDMGIYYCLQYDEFPYTFGGGTKLEIK", "binding": "binds"}
